# The other results are listed elsewhere or left out.
# Columns and labels:
# Assay in all cases: glycan array binding signal (z-score within array); higher = stronger binding
# Settings in all cases: glycan notation: IUPAC condensed, linker removed
# [1] = molecular target: Gal(b1-4)GlcNAc(b1-3)Gal(b1-4)GlcNAc(b1-6)[Gal(b1-3)]GalNAc
# Procedure, shortened: (§1)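 Negative Z-scores can be read as non-binding. The Z-score is calculated within each array and then averaged across arrays of one protein sequence at different concentrations or buffers and across linkers. Arrays, 3228 in all, were curated from the Consortium for Functional Glycomics database and kept only where the protein sequence was available.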
# [2] = molecular target: Gal(b1-4)GlcNAc(b1-3)Gal(b1-4)[Fuc(a1-3)]GlcNAc(b1-3)Gal(b1-4)[Fuc(a1-3)]GlcNAc
# Procedure, shortened: as §1
# [3] = molecular target: Gal(b1-4)GlcNAc(b1-3)GalNAc
# Procedure, shortened: as §1
# [4] = molecular target: Gal(b1-4)GlcNAc(b1-3)[Fuc(a1-3)GlcNAc(b1-6)]Gal(b1-4)Glc
# Procedure, shortened: as §1
# [5] = molecular target: Gal(b1-4)GlcNAc(b1-3)[Gal(b1-4)GlcNAc(b1-6)]Gal(b1-4)GlcNAc
# Procedure, shortened: as §1
# [6] = molecular target: Gal(b1-4)GlcNAc(b1-3)[GlcNAc(b1-6)]Gal(b1-4)GlcNAc
# Procedure, shortened: as §1
# [7] = molecular target: Gal(b1-4)GlcNAc(b1-6)Gal(b1-4)GlcNAc
# Procedure, shortened: as §1
# [8] = molecular target: Gal(b1-4)GlcNAc(b1-6)GalNAc
# Procedure, shortened: as §1
# [9] = molecular target: Gal(b1-4)GlcNAc(b1-6)[Gal(b1-3)]GalNAc
# Procedure, shortened: as §1
# [10] = molecular target: Gal(b1-4)GlcNAc(b1-6)[Gal(b1-4)GlcNAc(b1-3)]GalNAc
# Procedure, shortened: as §1
# [11] = molecular target: Gal(b1-4)GlcNAc6P
# Procedure, shortened: as §1
# [12] = molecular target: Gal(b1-6)Gal
# Procedure, shortened: as §1
# [13] = molecular target: Gal3S(b1-3)GalNAc
# Procedure, shortened: as §1
# [14] = molecular target: Gal3S(b1-3)GlcNAc
# Procedure, shortened: as §1
# [15] = molecular target: Gal3S(b1-3)[Fuc(a1-4)]GlcNAc
# Procedure, shortened: as §1
# [16] = molecular target: Gal3S(b1-4)Glc
# Procedure, shortened: as §1
# [17] = molecular target: Gal3S(b1-4)Glc6S
# Procedure, shortened: as §1
# [18] = molecular target: Gal3S(b1-4)GlcNAc
# Procedure, shortened: as §1
# [19] = molecular target: Gal3S(b1-4)[Fuc(a1-3)]Glc6S
# Procedure, shortened: as §1
# [20] = molecular target: Gal3S(b1-4)[Fuc(a1-3)]GlcNAc
# Procedure, shortened: as §1
# [21] = molecular target: Gal3S(b1-4)[Fuc(a1-3)]GlcNAc6S
# Procedure, shortened: as §1
# [22] = molecular target: Gal3S4S(b1-4)GlcNAc
# Procedure, shortened: as §1
# [23] = molecular target: Gal3S6S(b1-4)GlcNAc
# Procedure, shortened: as §1
# [24] = molecular target: Gal3S6S(b1-4)GlcNAc6S
# Procedure, shortened: as §1
# [25] = molecular target: Gal4S(b1-4)GlcNAc
# Procedure, shortened: as §1
# [26] = molecular target: Gal4S6S(b1-4)GlcNAc
# Procedure, shortened: as §1
# [27] = molecular target: Gal6P(b1-4)GlcNAc
# Procedure, shortened: as §1
# [28] = molecular target: Gal6S(b1-3)GlcNAc
# Procedure, shortened: as §1
# [29] = molecular target: Gal6S(b1-3)GlcNAc6S
# Procedure, shortened: as §1
# [30] = molecular target: Gal6S(b1-4)Glc
# Procedure, shortened: as §1
# [31] = molecular target: Gal6S(b1-4)Glc6S
# Procedure, shortened: as §1
# [32] = molecular target: Gal6S(b1-4)GlcNAc
# Procedure, shortened: as §1
# [33] = molecular target: Gal6S(b1-4)GlcNAc6S
# Procedure, shortened: as §1
# [34] = molecular target: GalNAc(a1-3)Gal
# Procedure, shortened: as §1
# [35] = molecular target: GalNAc(a1-3)GalNAc
# Procedure, shortened: as §1
# [36] = molecular target: GalNAc(a1-3)GalNAc(b1-3)Gal(a1-4)Gal(b1-4)Glc
# Procedure, shortened: as §1
# [37] = molecular target: GalNAc(a1-3)GalNAc(b1-3)Gal(a1-4)Gal(b1-4)GlcNAc
# Procedure, shortened: as §1
# [38] = molecular target: GalNAc(b1-3)Gal
# Procedure, shortened: as §1
# [39] = molecular target: GalNAc(b1-3)Gal(a1-4)Gal(b1-4)GlcNAc
# Procedure, shortened: as §1
# [40] = molecular target: GalNAc(b1-3)Gal(a1-4)Gal(b1-4)GlcNAc(b1-3)Gal(b1-4)Glc
# Procedure, shortened: as §1
# [41] = molecular target: GalNAc(b1-3)Gal(a1-6)Gal(b1-4)Glc
# Procedure, shortened: as §1
# [42] = molecular target: GalNAc(b1-3)GalNAc
# Procedure, shortened: as §1
# [43] = molecular target: GalNAc(b1-3)GlcNAc
# Procedure, shortened: as §1
# [44] = molecular target: GalNAc(b1-4)Gal(b1-4)Glc
# Procedure, shortened: as §1
# [45] = molecular target: GalNAc(b1-4)GlcNAc
# Procedure, shortened: as §1
binder,measurement,setting,value
PhypaEULS3 (Physcomitrella patens) (protein) MLPVRLHCKADPNFNLAAVPGQGPVMVPFSPNDDFQVWYKDVTMSTRVKDETGSSAFSLINKATGQALRHAPEDLAQCLLADYDSNALDQTVLWTMSEDMGQGYCCIRLASQITRNLDVFRGDKKSGGVKEGSPVITFAWKKQDNQIWKMITAILEQKLISEEDLNSAVDHHHHHH,glycan array binding signal (z-score),[1],1.3
same,glycan array binding signal (z-score),[2],-1.04
same,glycan array binding signal (z-score),[3],-1.07
same,glycan array binding signal (z-score),[4],1.35
same,glycan array binding signal (z-score),[5],-0.319
same,glycan array binding signal (z-score),[6],0.751
same,glycan array binding signal (z-score),[7],-0.462
same,glycan array binding signal (z-score),[8],-1.37
same,glycan array binding signal (z-score),[9],0.337
same,glycan array binding signal (z-score),[10],-0.325
same,glycan array binding signal (z-score),[11],-1.38
same,glycan array binding signal (z-score),[12],0.62
same,glycan array binding signal (z-score),[13],-0.127
same,glycan array binding signal (z-score),[14],0.616
same,glycan array binding signal (z-score),[15],-0.439
same,glycan array binding signal (z-score),[16],-1.2
same,glycan array binding signal (z-score),[17],-0.039
same,glycan array binding signal (z-score),[18],0.855
same,glycan array binding signal (z-score),[19],0.258
same,glycan array binding signal (z-score),[20],1
same,glycan array binding signal (z-score),[21],2.66
same,glycan array binding signal (z-score),[22],-0.136
same,glycan array binding signal (z-score),[23],0.683
same,glycan array binding signal (z-score),[24],0.551
same,glycan array binding signal (z-score),[25],-1.71
same,glycan array binding signal (z-score),[26],-0.245
same,glycan array binding signal (z-score),[27],0.132
same,glycan array binding signal (z-score),[28],1.98
same,glycan array binding signal (z-score),[29],4.14
same,glycan array binding signal (z-score),[30],0.381
same,glycan array binding signal (z-score),[31],-0.328
same,glycan array binding signal (z-score),[32],1.1
same,glycan array binding signal (z-score),[33],1.27
same,glycan array binding signal (z-score),[34],-0.459
same,glycan array binding signal (z-score),[35],-0.427
same,glycan array binding signal (z-score),[36],0.614
same,glycan array binding signal (z-score),[37],0.114
same,glycan array binding signal (z-score),[38],-0.103
same,glycan array binding signal (z-score),[39],-1.89
same,glycan array binding signal (z-score),[40],-0.317
same,glycan array binding signal (z-score),[41],-0.536
same,glycan array binding signal (z-score),[42],0.246
same,glycan array binding signal (z-score),[43],-0.207
same,glycan array binding signal (z-score),[44],0.319
same,glycan array binding signal (z-score),[45],-1.91

# A stretch of the results above, for reference:
binder,measurement,setting,value
PhypaEULS3 (Physcomitrella patens) (protein) MLPVRLHCKADPNFNLAAVPGQGPVMVPFSPNDDFQVWYKDVTMSTRVKDETGSSAFSLINKATGQALRHAPEDLAQCLLADYDSNALDQTVLWTMSEDMGQGYCCIRLASQITRNLDVFRGDKKSGGVKEGSPVITFAWKKQDNQIWKMITAILEQKLISEEDLNSAVDHHHHHH,glycan array binding signal (z-score),[41],-0.536
same,glycan array binding signal (z-score),[42],0.246

# Source: the supplement of paper PMC8728848
